Source: patent US6841535B2, “Peptide-mediated transfection agents and methods of use” (Active Motif, priority 2000, dated 2005)
Some results were stated once for a whole list of compounds, not compound by compound.

Test system: mammalian fibroblasts, NIH 3T3 fibroblasts or murine L1210 lymphocytes
Experiment: Cellular localization of lucifer yellow-linked peptides
Assay type: cell-based
Details: lucifer yellow-linked peptide

Substance: MGLGLHLLVLAAALQGAKKKRKV (MGLGLHLLVLAAALQGAKKKRKV) [[2]]
- incubation time for nuclear localization: less than 3 min

Substance: MGLGLHLLVLAAALQGAWSQPKKKRKV (MGLGLHLLVLAAALQGAWSQPKKKRKV) [[1]]
- incubation time for nuclear localization: less than 3 min
